Values from PubChem BioAssay AID686943 (Drosophila RNAi Screening Center, 2013).
In all, the deposit lists about 23,000 reagents; this is an unselected part of those that have a named target and a result. 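Extra replicates exist only for a retested subset of genes; insulin dose and duration not given; both raised and lowered dpERK matter.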 Not all columns of the deposit are shown. The record does not give: the amount of reagent, the time to read-out.

- Aim: 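Knockdowns that increase or decrease active ERK after insulin receptor stimulation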 (primary screen)
- Cell system: Drosophila S2R+ haemocyte-like cells expressing YFP-tagged ERK (Rolled)
- Reagents: long dsRNA against Drosophila genes
- Conditions: insulin stimulation versus unstimulated cells; dose and duration not given
- Detection: 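Antibody staining for doubly phosphorylated ERK divided by ERK-YFP signal, as plate z-scores, in insulin-treated and untreated cells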
- Reading the numbers: replicate 1, z-score of dpERK with insulin: higher = more active ERK per ERK-YFP after insulin

gene | DRSC id | replicate 1, z-score of dpERK with insulin
CG2278 | DRSC18226 | 0.36
CG13585 | DRSC04221 | 0.06
cyr | DRSC18017 | 0.28
cyr | DRSC18018 | 0.1
cyr | DRSC18021 | -0.23
CG6424 | DRSC05936 | 1.13
Atx-1 | DRSC18365 | -0.01
HLH4C | DRSC18670 | 0.65
HLH4C | DRSC21322 | 0.47
Vti1a | DRSC08563 | 1.8
CG8677 | DRSC03107 | 0.67
ND-19 | DRSC04404 | 0.61
Jon99Cii | DRSC16858 | 1.81
Jon99Cii | DRSC22574 | -0.12
PsGEF | DRSC18596 | 0.52
PsGEF | DRSC18600 | -0.8
PsGEF | DRSC18601 | -2.07
Naglu | DRSC02267 | -0.42
CG7382 | DRSC03052 | -0.43
Cog1 | DRSC15661 | -0.14
CG3792 | DRSC02725 | 0.83
Cad88C | DRSC15486 | 0.26
spz4 | DRSC02410 | 1.5
endos | DRSC10658 | 1.55
CG3909 | DRSC14150 | -0.2
CG5934 | DRSC15922 | -0.22
Cad74A | DRSC10636 | -0.09
mrn | DRSC10913 | 0.32
Spt3 | DRSC15465 | 0.38
eIF2alpha | DRSC20327 | -0.46
baf | DRSC03051 | 0.44
Xpd | DRSC04666 | 1
CG43307 | DRSC00893 | 1
CG14535 | DRSC02393 | -0.34
Daao1 | DRSC06131 | 0.54
CG11200 | DRSC06060 | 0.69
CG3117 | DRSC00568 | 0.72
HP1D3csd | DRSC19548 | 1.07
Arl6IP1 | DRSC14231 | -0.93

Laid out differently: entries from further up
PsGEF [DRSC18600] — replicate 1, z-score of dpERK with insulin = -0.8
PsGEF [DRSC18601] — replicate 1, z-score of dpERK with insulin = -2.07
Naglu [DRSC02267] — replicate 1, z-score of dpERK with insulin = -0.42
